Measurements: patent US4559324A (Takeda Chemical Industries, Ltd., priority 1982, dated 1985)

Test: general procedure: solution-phase peptide synthesis; DCC/HONB; DCC/HOBt

“H-Arg-Gly-Gln-Phe-Phe-(D)-Ala-Asp(OBu^t)2” gave a step yield (coupling step) of 20.5%.

In the case of “H-(D)-Arg-Gly-Gln-(D)-Trp-Phe-(D)-Trp-Asp(OBu^t)2.citrate”, the step yield (late stage modification step, citrate) is reported as 83%.

Substance H-Arg-Gly-Gln-Phe-Phe-Gly-Asp(OBu^t)2 has a step yield (late stage modification step) of 39.5%.

Substance H-Arg-Gln-Phe-Phe-Gly-Asp(OBu^t)2 has a step yield (coupling step) of 62.3%.

For “Z-Arg(NO2)-Gly-Gln-Phe-Phe-Gly-Asp(OBu^t)2”, the step yield (coupling step) was 63.1%.

“H-Arg-Gly-Gln-(D)-Trp-Phe-Gly-Asp(OBu^t)2.H2 SO4” gave a step yield (late stage modification step, H2SO4) of 97%.

Z-Gln-Phe-Phe-(D)-Ala-Asp(OBu^t)2 gave a step yield (coupling step) of 84.2%.

Work on “H-Arg-Gly-Gln-(D)-Trp-Phe-Gly-Asp(OBu^t)2” yielded a step yield (late stage modification step) of 45.7%.

“H-Lys-Gly-Gln-Phe-Phe-Gly-Asp(OBu^t)2.tartarate” gave a step yield (late stage modification step, tartarate) of 97%.

With Z-Phe-Phe-(D)-Ala-Asp(OBu^t)2 the step yield (coupling step) was 48.2%.

With “Z-Arg(NO2)-Gly-Gln-(D)-Trp-Phe-Gly-Asp(OBu^t)2” the step yield (coupling step) was 90.4%.

Z-Phe-Phe-Gly-Asp(OBu^t)2 gave a step yield (coupling step) of 63.3%.

Substance Z-(D)-Trp-Phe-Gly-Asp(OBu^t)2 has a step yield (coupling step) of 63.7%.

For Z-Gln-(D)-Trp-Phe-Gly-Asp(OBu^t)2, the step yield (coupling step) was 67.6%.

For H-Lys-Gln-Phe-Phe-Gly-Asp(OBu^t)2, the step yield (coupling step) was 42.0%.

Work on “H-Arg-Gly-Gln-Phe-Phe-Gly-Asp(OBu^t)2.2HCl” yielded a step yield (late stage modification step, 2HCl) of 89%.

With Z-Gln-Phe-Phe-GLy-Asp(OBu^t)2 the step yield (coupling step) was 62.2%.
